# Reference: PubChem BioAssay AID1259308 (NCATS, 2017)
# Assay: 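Candidate targets for better recombinant protein yield in mammalian cells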 (primary screen)
# System: human HEK293 embryonic kidney cells stably expressing firefly luciferase (HEK-CMV-Luc2-Hygro)
# Reagent: single siRNA against human genes, 0.8 pmol siRNA per well
# Timing: 72 h
# Measurement: 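Luciferase light (ONE-Glo) measured on one replicate plate set and viability (CellTiter-Glo) on the other, scaled to a negative control siRNA, with robust z-scores and luciferase per cell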
# Direction: total luciferase, z-score and total luciferase, % of control: higher = more reporter protein produced; luciferase per cell, z-score: higher = more reporter output per viable cell
# Active means: 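Active when the median/MAD z-score for overall luciferase is greater than 3; a gene was taken forward for validation with new siRNAs if at least two of its three siRNAs passed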
# Meaning of the calls: active = raised luciferase; inactive = no rise
# The whole screen tested about 59,000 reagents; below is an unselected part. About 1,510 of them (2.6%) were called active. 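Calls use total luciferase alone and ignore viability, so some active siRNAs may act by altering cell number.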 The numbers tell different reagents against one gene apart. Not all columns of the deposit are shown.
gene,reagent,"total luciferase, z-score","total luciferase, % of control","luciferase per cell, z-score",call
RBL2,1,-0.0042,81.8,-0.0197,inactive
RBL2,2,-0.25,76.9,-0.58,inactive
RBL2,3,0.0156,82.2,-0.624,inactive
CDH18,1,0.489,91.6,-0.222,inactive
CDH18,2,-2.1,40.1,-2.67,inactive
CDH18,3,-0.141,79.1,-0.556,inactive
PRDM14,1,1.42,110,1.67,inactive
PRDM14,2,0.568,93.2,0.26,inactive
PRDM14,3,-1.43,53.5,-1.52,inactive
GBA1,1,-0.443,73.1,-0.341,inactive
GBA1,2,0.351,88.9,-0.0296,inactive
GBA1,3,-1.08,60.4,-0.185,inactive

2 neighbouring reagents already listed, quoted:
gene,reagent,"total luciferase, z-score","total luciferase, % of control","luciferase per cell, z-score",call
PRDM14,1,1.42,110,1.67,inactive
PRDM14,2,0.568,93.2,0.26,inactive

The list goes on.
gene,reagent,"total luciferase, z-score","total luciferase, % of control","luciferase per cell, z-score",call
ERGIC2,1,1.37,109,0.54,inactive
ERGIC2,2,0.524,92.3,0.13,inactive
ERGIC2,3,-1.24,57.3,-1.38,inactive
MTFP1,1,1.25,107,1.39,inactive
MTFP1,2,-1.16,58.8,-0.641,inactive
MTFP1,3,1.88,119,1.36,inactive
NEU3,1,0.584,93.5,0.406,inactive
NEU3,2,-0.533,71.3,0.865,inactive
NEU3,3,1.34,109,1.96,inactive
ZNF552,1,-0.0312,81.3,0.687,inactive
ZNF552,2,1.55,113,0.983,inactive
ZNF552,3,-0.126,79.4,1.15,inactive
